The source gives many values for each of these; only a part stands here.
Tested on: C. elegans transcriptome
Experiment: Transcriptome profiling (Affymetrix microarrays), differentially expressed genes
Format: in vivo, Caenorhabditis elegans
Conditions: downregulated genes
Protocol: To gain additional insight into the effect of LK molecules on C. elegans, young-adult, wild-type worms were treated with each drug at 100 µM for 8 h in the absence of pathogen. RNA was collected, and transcriptome profiling was performed.
Data were determined using Affymetrix microarrays, as described in Materials and Methods. Download Table S3, XLSX file, 0.07 MB.
Transcriptome profiling was performed on ∼6,000 wild-type, young adult worms incubated with either LK molecules or DMSO for 8 h. RNA isolation was performed using TRIzol extraction, followed by cleanup using RNeasy columns according to the manufacturer’s protocol. Each condition was analyzed in triplicate. Microarray data have been deposited in the GEO database, accession number GSE137516. […] Clustering and generation of the heat map was performed using Cluster 3.0 ([98]) and Treeview ([99]), respectively. Fold change of genes were normalized to average fold change of that gene over all clustered conditions. Genes and conditions were clustered using Euclidean distance and average linkages. […] Microarray data for non-LK molecules were collected from GEO omnibus. WormEXP was used as a secondary method for confirming statistical significance of potential pathways stimulated by each of the LK molecules ([100]). Gene ontologies were generated using DAVID ([101], [102]).

## CCN(CC)/N=N/c1ccc(C(=O)O)cc1 [LK35]
Affy_ID 192118_s_at, listed under gene F10C1.7 (LK34, LK35) or F10C1.8 (LK38)
  Fold Change: 0.248
Affy_ID 194255_x_at, listed under gene F22A3.6 (LK34, LK35) or C68743 (LK38)
  Fold Change: 0.4882
Gene B0218.1, Affy_ID 188358_at
  Fold Change: 0.1589
Gene B0228.7, Affy_ID 187261_s_at
  Fold Change: 0.4481
Gene B0379.1, Affy_ID 179086_s_at
  Fold Change: 0.2396
Gene B0507.8, Affy_ID 180569_at
  Fold Change: 0.1901
Gene C01B10.1, Affy_ID 185299_s_at
  Fold Change: 0.4121
Gene F08G2.2, Affy_ID 172835_x_at
  Fold Change: 0.36
Gene F08G2.3, Affy_ID 172899_x_at
  Fold Change: 0.3757
Gene F08G2.4, Affy_ID 178720_at
  Fold Change: 0.4426
Gene F08H9.7, Affy_ID 189904_at
  Fold Change: 0.3207
Gene F08H9.8, Affy_ID 189993_at
  Fold Change: 0.1341
Gene F09C12.7, Affy_ID 172687_x_at
  Fold Change: 0.2585
Gene F10G7.5, Affy_ID 180083_at
  Fold Change: 0.4289
Gene F11E6.3, Affy_ID 179439_s_at
  Fold Change: 0.3249
Gene F11G11.8, Affy_ID 172546_x_at
  Fold Change: 0.3727
Gene F13B6.3, Affy_ID 180766_at
  Fold Change: 0.1108
Gene F13H8.7, Affy_ID 191583_s_at
  Fold Change: 0.4113
Gene F16F9.4, Affy_ID 188201_at
  Fold Change: 0.4466
Gene F17C11.2, Affy_ID 181257_at
  Fold Change: 0.3748
Gene F17C11.4, Affy_ID 180312_at
  Fold Change: 0.2244
Gene F17E9.9, Affy_ID 172851_x_at
  Fold Change: 0.3215
Gene F20A1.1, Affy_ID 172426_x_at
  Fold Change: 0.3786
Gene F20D6.5, Affy_ID 182519_at
  Fold Change: 0.1457
Gene F22B7.9, Affy_ID 187282_at
  Fold Change: 0.4235
Gene F23B2.11, Affy_ID 191274_s_at
  Fold Change: 0.2539
Gene F25E5.8, Affy_ID 183125_at
  Fold Change: 0.3588
Gene F26A3.4, Affy_ID 191521_s_at
  Fold Change: 0.2161
Gene F26G1.7, Affy_ID 172882_x_at
  Fold Change: 0.1768
Gene F27C8.4, Affy_ID 179424_at
  Fold Change: 0.4279
Gene F28H1.2, Affy_ID 188459_s_at
  Fold Change: 0.3051
Gene F32B6.6, Affy_ID 172854_x_at
  Fold Change: 0.1826
Gene F32G8.6, Affy_ID 190591_at
  Fold Change: 0.1491
Gene F36D3.9, Affy_ID 189469_at
  Fold Change: 0.03478
Gene F37A8.4, Affy_ID 188068_at
  Fold Change: 0.0772
Gene F38A3.1, Affy_ID 188281_s_at
  Fold Change: 0.1574
Gene F38E9.1, Affy_ID 180768_at
  Fold Change: 0.3492
Gene F38E11.2, Affy_ID 192323_at
  Fold Change: 0.1463
Gene F40F8.7, Affy_ID 192333_at
  Fold Change: 0.4317
Gene F41B4.1, Affy_ID 175917_at
  Fold Change: 0.3724
Gene F43C11.7, Affy_ID 186263_at
  Fold Change: 0.2993
Gene F44C8.3, Affy_ID 192777_at
  Fold Change: 0.479
Gene F44C8.8, Affy_ID 189999_at
  Fold Change: 0.1733
Gene F44D12.5, Affy_ID 172333_x_at
  Fold Change: 0.1411
Gene F44D12.7, Affy_ID 172327_x_at
  Fold Change: 0.09874
Gene F45D11.15, Affy_ID 186801_s_at
  Fold Change: 0.3181
Gene F45E4.8, Affy_ID 183438_s_at
  Fold Change: 0.2609
Gene F45F2.12, Affy_ID 172874_x_at
  Fold Change: 0.4821
Gene F47B10.2, Affy_ID 191301_s_at
  Fold Change: 0.1104
Gene F48G7.10, Affy_ID 184636_at
  Fold Change: 0.03006
Gene F49E2.2, Affy_ID 179120_s_at
  Fold Change: 0.4547
Gene F49E12.10, Affy_ID 190009_at
  Fold Change: 0.03479
Gene F52H3.7, Affy_ID 192849_s_at
  Fold Change: 0.3536
Gene F53A9.6, Affy_ID 172363_x_at
  Fold Change: 0.2854
